Laboratory results from publication PMC12165811.
These are yes or no findings as the source states them, for the method shown. Binding seen in cells or lysates may run through a third protein. Some binding calls cover weakened binding; strength is not graded here.

Amino acid sequences for entries named in this document (tags omitted).
UniProt P09405: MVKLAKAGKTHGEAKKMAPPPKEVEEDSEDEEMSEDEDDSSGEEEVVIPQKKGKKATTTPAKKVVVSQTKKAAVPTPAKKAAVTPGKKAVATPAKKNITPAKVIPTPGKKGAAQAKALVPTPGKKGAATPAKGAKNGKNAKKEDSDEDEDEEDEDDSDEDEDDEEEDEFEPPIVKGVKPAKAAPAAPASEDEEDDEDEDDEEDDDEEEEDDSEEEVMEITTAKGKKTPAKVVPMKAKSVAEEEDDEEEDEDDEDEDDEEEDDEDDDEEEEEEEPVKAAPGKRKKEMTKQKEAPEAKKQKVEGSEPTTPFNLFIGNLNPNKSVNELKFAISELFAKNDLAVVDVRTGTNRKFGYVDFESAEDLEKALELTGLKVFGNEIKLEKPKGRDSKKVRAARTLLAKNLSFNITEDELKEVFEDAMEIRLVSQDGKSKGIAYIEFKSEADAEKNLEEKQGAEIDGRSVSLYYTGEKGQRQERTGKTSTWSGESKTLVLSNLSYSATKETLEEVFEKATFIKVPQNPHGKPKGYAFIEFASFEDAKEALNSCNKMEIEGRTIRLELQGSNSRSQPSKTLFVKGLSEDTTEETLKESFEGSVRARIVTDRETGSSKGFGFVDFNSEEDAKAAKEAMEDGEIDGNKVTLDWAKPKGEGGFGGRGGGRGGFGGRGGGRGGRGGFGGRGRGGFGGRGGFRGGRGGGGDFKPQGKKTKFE

Molecular target: HNRNPK (mouse (endogenous in MEFs)) (UniProt P61979)
Test: co-IP; HNRNPK immunoprecipitated from Hnrnpk^SAM and empty vector MEFs with anti-HNRNPK (D6) antibody coupled to Dynabeads M-270 Epoxy; cells cryolysed in liquid nitrogen, resuspended in IP buffer

binding: binds
Substance: nucleolin (from UniProt P09405 1-707)
